Taken from: PubChem BioAssay AID504793 (Drosophila RNAi Screening Center, 2011)
The deposit covers about 23,000 reagents; this is an unselected part of those that have a named target and a result. In the full data, 62 (0.27%) were called active. 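Calls come from follow-up tests whose scores are not deposited, so confirmed genes may have low counts here; counts are not normalised per plate.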 The raw values are shown without normalisation. A number with no mark means an inactive call. Reagent sequences are not shown.

- Screen: 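Genes required for cells to halt at G2/M after double-strand DNA breaks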 (primary screen)
- Cell system: Drosophila S2R+ cells
- Knock-down reagent: long dsRNA against Drosophila genes, about 0.25 µg dsRNA per well
- Duration: 4 days of dsRNA, then 4 hours of drug before read-out
- Treatment: doxorubicin 0.5 µM for 4 hours to cause double-strand breaks, in cells also given a low, harmless dose of dsRNA against nbs to sensitise the assay
- Measurement: 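Mitotic index as the number of phospho-histone H3-positive cells in each well following doxorubicin, given as raw counts without normalisation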
- Direction: mitotic cells: higher = more cells in mitosis, weaker G2 arrest
- Hit rule: 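Genes are called active only when high mitotic counts were reproduced with independent dsRNAs and mitosis was checked for delay without damage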
- Meaning of the calls: active = confirmed in follow-up tests; inactive = not confirmed

After knock-down of Agpat1 [DRSC19879], the record shows mitotic cells, replicate 1 = 23.
Agpat1 [DRSC19880] scored mitotic cells, replicate 1 = 14.
TwdlF [DRSC12225] scored mitotic cells, replicate 1 = 9.
For TwdlF [DRSC27258], the values are mitotic cells, replicate 1 = 12.
With knock-down of CG14397 [DRSC02381] the results were mitotic cells, replicate 1 = 7.
With knock-down of CG30281 [DRSC04528], the screen gave mitotic cells, replicate 1 = 4.
For CG30281 [DRSC26805], the entry reads mitotic cells, replicate 1 = 6.
hig [DRSC07628] showed mitotic cells, replicate 1 = 3.
After knock-down of hig [DRSC22827] the results were mitotic cells, replicate 1 = 5.
Against hig [DRSC22899], the values are mitotic cells, replicate 1 = 14.
For hig [DRSC26925], the entry reads mitotic cells, replicate 1 = 6.
After knock-down of Pcd [DRSC16785], the screen gave mitotic cells, replicate 1 = 14.
CG7789 [DRSC16312] scored mitotic cells, replicate 1 = 14.

No new results follow: 3 of the entries above.
Agpat1 [DRSC19880]: mitotic cells, replicate 1 = 14
TwdlF [DRSC12225]: mitotic cells, replicate 1 = 9
TwdlF [DRSC27258]: mitotic cells, replicate 1 = 12

Continued:
CG33229 [DRSC07863] scored mitotic cells, replicate 1 = 21.
Knock-down of CG33229 [DRSC24581] resulted in: mitotic cells, replicate 1 = 3.
mre11 [DRSC03570] scored mitotic cells, replicate 1 = 9.
Against mre11 [DRSC22628] the deposit lists mitotic cells, replicate 1 = 7.
Against mre11 [DRSC26311], the entry reads mitotic cells, replicate 1 = 5.
Knock-down of CG11374 [DRSC00306] resulted in: mitotic cells, replicate 1 = 4.
After knock-down of caps [DRSC11333] the results were mitotic cells, replicate 1 = 3.
Against caps [DRSC22224] the deposit lists mitotic cells, replicate 1 = 13.
Depletion of Dhc62B [DRSC08655] came out at: mitotic cells, replicate 1 = 8.
CG10628 [DRSC02080] scored mitotic cells, replicate 1 = 8.
